Measured values taken from PubChem BioAssay AID2551 (National Center for Advancing Translational Sciences (NCATS), 2010).
Out of some 310,000 compounds screened, about 17,000 (5.5%) were called active. Inconclusive results, whose numbers are uncertain, are shown with a selection of clear calls. Calls follow the shape of the dose curve; as a rule, active = well fitted inhibition curve with a large enough effect; inconclusive = small, poorly fitted or top-dose-only effect, or effect the other way; inactive = no such curve, though single readings can be large or run the other way. A potency beside an inconclusive call is a rough fit, not a confirmed value.

Chains of the proteins cited; added tags and fusions are not shown. Lines headed by an entry give the natural chain unless they say otherwise; changes in a name come on top.
UniProt P51450: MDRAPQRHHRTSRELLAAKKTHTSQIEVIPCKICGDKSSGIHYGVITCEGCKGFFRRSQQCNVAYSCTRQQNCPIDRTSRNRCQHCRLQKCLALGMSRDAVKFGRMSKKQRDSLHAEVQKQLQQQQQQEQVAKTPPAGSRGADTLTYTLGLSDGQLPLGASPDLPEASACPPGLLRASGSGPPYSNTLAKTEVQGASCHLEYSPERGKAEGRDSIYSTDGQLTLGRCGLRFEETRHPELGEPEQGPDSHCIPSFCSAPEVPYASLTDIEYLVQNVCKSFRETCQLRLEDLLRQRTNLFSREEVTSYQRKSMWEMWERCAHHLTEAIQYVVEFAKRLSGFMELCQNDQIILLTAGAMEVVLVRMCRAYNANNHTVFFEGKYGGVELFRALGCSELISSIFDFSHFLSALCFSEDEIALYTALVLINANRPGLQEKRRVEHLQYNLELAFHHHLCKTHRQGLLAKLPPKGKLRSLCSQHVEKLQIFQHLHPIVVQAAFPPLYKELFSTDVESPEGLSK

The compounds below were run against Nuclear receptor ROR-gamma (Mus musculus) (UniProt P51450) (assay: qHTS for inhibitors of ROR gamma transcriptional activity). Details: Drosophila S2 Gal4-RORgamma UAS-luciferase reporter, 20 h; series mostly up to 53.6 µM.
Summary of the method: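 Read-out: Photinus luciferase luminescence; inhibitors lower reporter signal. Insect Schneider cells with Gal4-ROR gamma fusion under metallothionein promoter, UAS reporter; 700 uM final copper sulfate induction, 20 hr, ambient temperature.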
Also: nearly all actives have a fitted effect of over 60% in size.
Potency is read from the fitted curve at half-maximal effect.

Question: How did the Potency turn out when COC(=O)CC(NC(=O)C1CC1)c1ccc2c(c1)OCO2 (centres undefined) was run?
Answer: The Potency was “inactive”.

Question: Which Potency does the source give for O=C(Nc1ccc(Cl)c(Cl)c1)Nc1nnc(CSc2ccccc2)s1 here?
Answer: Its Potency is inconclusive: 11.2 µM [activator, partial curve].

Question: COc1ccc(NC(=O)CN2C(=O)c3ccccc3Sc3ccc(C(=O)N4CCOCC4)cc32)c(OC)c1 was tested. Which Potency did it give?
Answer: Its Potency is inconclusive: 31.6 µM [activator, single point].

Question: Which Potency does the source give for CC(C)C(=O)Nc1cc(S(=O)(=O)Nc2cccc(Cl)c2)ccc1Cl here?
Answer: Its Potency is inconclusive: 20 µM [activator, single point].

Question: How did the Potency turn out when COc1cc(NC(=O)c2cccc(F)c2)ccc1NC(=O)c1cc2ccccc2o1 was run?
Answer: Its Potency is inconclusive: 22.4 µM [inhibitor, single point].

Question: O=C(NCCCN1CCOCC1)c1cc(-c2ccc(Cl)cc2)on1 was tested. Which Potency did it give?
Answer: Its Potency is active: 11.2 µM.

Question: With CC(=O)CC1OC(=O)C(Br)=C1NCc1ccccc1 (centres undefined) as the compound, how does the Potency read?
Answer: Its Potency is inconclusive: 14.1 µM [inhibitor, single point].

Question: For CC(C)(C)C(=O)NN=C1CCC(c2ccccc2)CC1 (centres undefined), which Potency is on record?
Answer: The Potency was inconclusive: 0.141 µM [inhibitor, full curve, poor fit].

Question: CCC(CC)C(=O)Nc1cccc(C(=O)NCCc2ccccc2)c1 was tested. Which Potency did it give?
Answer: Its Potency is inconclusive: 4.47 µM [activator, full curve, poor fit].

Question: For CCCc1ncc(C(O)(c2ccccc2)c2ccc(C)cc2)n1C (centres undefined), which Potency is on record?
Answer: Its Potency is inconclusive: 20 µM [inhibitor, single point].

Question: For CC(=O)c1ccc(S(=O)(=O)NC2CCCCCCC2)cc1, which Potency is on record?
Answer: Its Potency is inconclusive: 28.2 µM [activator, single point].

Question: Cc1cc(CC(C)C)n(-c2nc3ccccc3c(=O)n2OCc2ccccc2)n1 was tested. Which Potency did it give?
Answer: Its Potency is active: 1.58 µM.

Question: For Nc1nc(NCc2ccco2)nc(N2CCCCCC2)c1[N+](=O)[O-], which Potency is on record?
Answer: Its Potency is inconclusive: 10 µM [activator, partial curve].

Question: Which Potency does the source give for COc1ccc(S(=O)(=O)N(C)c2ccc(C(=O)NCc3ccncc3)cc2)cc1 here?
Answer: Its Potency is “inactive”.

Question: How did the Potency turn out when COCCCNC(=S)NCCNc1nc2cc(C)cc(C)c2cc1C#N was run?
Answer: The Potency was active: 8.91 µM.

Question: For O=S(=O)(NCCc1ccc(F)cc1)c1cccc2cccnc12, which Potency is on record?
Answer: Its Potency is inconclusive: 35.5 µM [inhibitor, single point].

Question: Which Potency does the source give for O=C(CN1C(=O)C2C3CCC(C3)C2C1=O)N1CCN(Cc2ccccc2)CC1 (centres undefined) here?
Answer: Its Potency is inconclusive: 14.1 µM [activator, partial curve].

Question: With COc1ccc(-c2cc(-c3n[nH]c(=S)n3-c3ccccc3Cl)[nH]n2)cc1 as the compound, how does the Potency read?
Answer: Its Potency is inconclusive: 20 µM [inhibitor, single point].

Question: How did the Potency turn out when COc1ccc(-c2c(-c3ccc(OCC(=O)NN)cc3O)n[nH]c2C)cc1 was run?
Answer: The Potency was inconclusive: 28.2 µM [inhibitor, single point].
